Data reported in PMC6478765.
No constants are given. Whether binding was seen depends on the method and setting. In cells and extracts the contact can be indirect. Some binding calls cover weakened binding; strength is not graded here.

By UniProt entry, the sequences of proteins in these tests, tags left out.
UniProt P21796: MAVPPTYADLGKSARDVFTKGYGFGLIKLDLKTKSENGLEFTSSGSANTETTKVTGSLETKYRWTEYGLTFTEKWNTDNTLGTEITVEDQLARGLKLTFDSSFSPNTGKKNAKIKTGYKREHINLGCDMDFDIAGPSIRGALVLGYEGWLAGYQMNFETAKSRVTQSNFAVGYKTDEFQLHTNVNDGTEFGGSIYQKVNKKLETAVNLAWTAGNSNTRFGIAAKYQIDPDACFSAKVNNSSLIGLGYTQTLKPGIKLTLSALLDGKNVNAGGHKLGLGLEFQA

Biological target: voltage dependent anion channel 1 (VDAC1) (human (endogenous in MCF7)) (UniProt P21796)
Test: co-IP; MCF7 lysates; IP by VDAC1 antibody, immunoblot for HKDC1 and VDAC1; stable cell lines: empty control (CTL), overexpression of PGC1β or HKDC1, knockdown of PGC1β or HKDC1 by lentivirus

binding: binds
B1: Hexokinase domain component 1 (HKDC1) (protein, UniProt Q2TB90-1 1-917)
chain: MFAVHLMAFYFSKLKEDQIKKVDRFLYHMRLSDDTLLDIMRRFRAEMEKGLAKDTNPTAAVKMLPTFVRAIPDGSENGEFLSLDLGGSKFRVLKVQVAEEGKRHVQMESQFYPTPNEIIRGNGTELFEYVADCLADFMKTKDLKHKKLPLGLTFSFPCRQTKLEEGVLLSWTKKFKARGVQDTDVVSRLTKAMRRHKDMDVDILALVNDTVGTMMTCAYDDPYCEVGVIIGTGTNACYMEDMSNIDLVEGDEGRMCINTEWGAFGDDGALEDIRTEFDRELDLGSLNPGKQLFEKMISGLYLGELVRLILLKMAKAGLLFGGEKSSALHTKGKIETRHVAAMEKYKEGLANTREILVDLGLEPSEADCIAVQHVCTIVSFRSANLCAAALAAILTRLRENKKVERLRTTVGMDGTLYKIHPQYPKRLHKVVRKLVPSCDVRFLLSESGSTKGAAMVTAVASRVQAQRKQIDRVLALFQLTREQLVDVQAKMRAELEYGLKKKSHGLATVRMLPTYVCGLPDGTEKGKFLALDLGGTNFRVLLVKIRSGRRSVRMYNKIFAIPLEIMQGTGEELFDHIVQCIADFLDYMGLKGASLPLGFTFSFPCRQMSIDKGTLIGWTKGFKATDCEGEDVVDMLREAIKRRNEFDLDIVAVVNDTVGTMMTCGYEDPNCEIGLIAGTGSNMCYMEDMRNIEMVEGGEGKMCINTEWGGFGDNGCIDDIWTRYDTEVDEGSLNPGKQRYEKMTSGMYLGEIVRQILIDLTKQGLLFRGQISERLRTRGIFETKFLSQIESDRLALLQVRRILQQLGLDSTCEDSIVVKEVCGAVSRRAAQLCGAGLAAIVEKRREDQGLEHLRITVGVDGTLYKLHPHFSRILQETVKELAPRCDVTFMLSEDGSGKGAALITAVAKRLQQAQKEN
